Experimental data published in article PMC9898340.
These are yes or no findings as the source states them, for the method shown. In cells and extracts the contact can be indirect. Some results given as binding are weak or reduced against the parent protein; the word gives no strength.

Sequences of proteins named here, by UniProt entry; tags and fusion partners are left off.
UniProt P40763: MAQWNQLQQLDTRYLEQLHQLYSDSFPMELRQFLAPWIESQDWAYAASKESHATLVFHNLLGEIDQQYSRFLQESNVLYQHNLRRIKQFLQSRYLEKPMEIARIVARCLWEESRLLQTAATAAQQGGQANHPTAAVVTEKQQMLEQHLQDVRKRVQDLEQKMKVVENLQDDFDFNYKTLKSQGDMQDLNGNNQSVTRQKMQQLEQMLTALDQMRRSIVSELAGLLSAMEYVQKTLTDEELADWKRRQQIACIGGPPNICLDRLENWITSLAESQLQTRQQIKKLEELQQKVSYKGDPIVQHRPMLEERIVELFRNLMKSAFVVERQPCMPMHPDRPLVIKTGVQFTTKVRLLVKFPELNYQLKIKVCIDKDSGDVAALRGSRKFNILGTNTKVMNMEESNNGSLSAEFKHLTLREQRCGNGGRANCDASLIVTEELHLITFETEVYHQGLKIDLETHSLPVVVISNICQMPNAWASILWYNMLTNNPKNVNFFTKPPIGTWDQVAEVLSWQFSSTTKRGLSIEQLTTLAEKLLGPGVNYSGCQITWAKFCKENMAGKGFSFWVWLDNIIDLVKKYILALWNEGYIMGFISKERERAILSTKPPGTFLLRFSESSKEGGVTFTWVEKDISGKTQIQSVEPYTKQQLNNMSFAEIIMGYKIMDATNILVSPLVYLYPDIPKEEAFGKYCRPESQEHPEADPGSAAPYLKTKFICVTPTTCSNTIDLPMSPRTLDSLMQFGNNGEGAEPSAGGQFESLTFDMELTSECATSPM
UniProt P78337: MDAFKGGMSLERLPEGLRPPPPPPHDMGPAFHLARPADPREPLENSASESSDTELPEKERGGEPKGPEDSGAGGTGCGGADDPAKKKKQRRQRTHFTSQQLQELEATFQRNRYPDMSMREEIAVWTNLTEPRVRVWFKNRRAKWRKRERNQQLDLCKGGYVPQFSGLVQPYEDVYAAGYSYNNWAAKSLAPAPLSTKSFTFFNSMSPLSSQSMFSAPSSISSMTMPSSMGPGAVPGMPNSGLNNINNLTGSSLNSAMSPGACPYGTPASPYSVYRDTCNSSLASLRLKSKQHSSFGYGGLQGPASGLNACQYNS

What was measured:
[1] = target: Myc-tagged wildtype STAT3 (UniProt P40763); assay: co-IP; HEK 293 T cells; STAT3 wildtype or domain-deleted with PITX1; which protein was precipitated is not told
[2] = target: Signal transducer and activator of transcription 3 (STAT3) (UniProt P40763); assay: co-IP; HOS and U2OS cells; which protein was precipitated is not told

Row | binding [1] | binding [2] | Substance
1 | binds |  | Flag-tagged PITX1 (from UniProt P78337 1-314)
2 |  | binds | Paired-like homeodomain transcription factor 1 (PITX1) (from UniProt P78337 1-314)
